Data as given in article PMC3499586, “Heterotrimeric G-protein Signaling Is Critical to Pathogenic Processes in Entamoeba histolytica” (PLoS Pathogens, 2012).
Results are given in words; binding and its absence hold for the method and conditions named. Some entries that bind do so weakly or less than the wild type. Sequences can lack the tags named with a protein.

Sequences of proteins named here, by UniProt entry; tags and fusion partners are left off.
UniProt C4M483: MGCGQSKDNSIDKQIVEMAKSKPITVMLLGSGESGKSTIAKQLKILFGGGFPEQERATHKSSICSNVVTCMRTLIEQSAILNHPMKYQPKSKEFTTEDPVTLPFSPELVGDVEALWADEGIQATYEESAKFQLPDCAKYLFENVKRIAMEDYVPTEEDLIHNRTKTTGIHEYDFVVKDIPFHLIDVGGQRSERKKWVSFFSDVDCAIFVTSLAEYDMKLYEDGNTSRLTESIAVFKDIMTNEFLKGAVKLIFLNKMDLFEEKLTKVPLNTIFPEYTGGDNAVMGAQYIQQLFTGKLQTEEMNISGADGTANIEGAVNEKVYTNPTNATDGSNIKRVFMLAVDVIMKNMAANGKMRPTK

Target: T1, EhRGS-RhoGEF (E. histolytica) (UniProt C4LYV4)
T1 sequence: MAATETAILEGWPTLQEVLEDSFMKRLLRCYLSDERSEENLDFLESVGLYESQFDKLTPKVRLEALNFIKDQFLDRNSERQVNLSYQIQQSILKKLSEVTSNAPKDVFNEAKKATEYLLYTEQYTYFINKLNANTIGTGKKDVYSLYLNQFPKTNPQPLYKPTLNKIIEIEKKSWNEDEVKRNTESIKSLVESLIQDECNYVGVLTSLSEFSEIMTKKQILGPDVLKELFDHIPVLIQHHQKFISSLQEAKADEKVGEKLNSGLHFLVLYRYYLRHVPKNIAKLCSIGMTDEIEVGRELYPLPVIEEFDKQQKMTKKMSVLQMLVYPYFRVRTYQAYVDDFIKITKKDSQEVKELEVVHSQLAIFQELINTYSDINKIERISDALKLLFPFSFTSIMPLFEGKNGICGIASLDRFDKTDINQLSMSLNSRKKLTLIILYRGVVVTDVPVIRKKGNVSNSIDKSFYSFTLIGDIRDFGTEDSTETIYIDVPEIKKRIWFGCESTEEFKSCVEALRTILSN
Assay: SPR; both purified

Substance: EhGα1 (recombinant, purified from E. coli) (from UniProt C4M483 1-358)
- binding: binds
